These are yes or no findings as the source states them, for the method shown. In cells and extracts the contact can be indirect. Here binding means that the protein was enriched with, or labelled near, the bait; the list need not be complete. Tags and fused reporters may be left off the sequences shown.
Target: T1, NMD3-tev-3XFLAG (human) (UniProt Q96D46)
T1 sequence: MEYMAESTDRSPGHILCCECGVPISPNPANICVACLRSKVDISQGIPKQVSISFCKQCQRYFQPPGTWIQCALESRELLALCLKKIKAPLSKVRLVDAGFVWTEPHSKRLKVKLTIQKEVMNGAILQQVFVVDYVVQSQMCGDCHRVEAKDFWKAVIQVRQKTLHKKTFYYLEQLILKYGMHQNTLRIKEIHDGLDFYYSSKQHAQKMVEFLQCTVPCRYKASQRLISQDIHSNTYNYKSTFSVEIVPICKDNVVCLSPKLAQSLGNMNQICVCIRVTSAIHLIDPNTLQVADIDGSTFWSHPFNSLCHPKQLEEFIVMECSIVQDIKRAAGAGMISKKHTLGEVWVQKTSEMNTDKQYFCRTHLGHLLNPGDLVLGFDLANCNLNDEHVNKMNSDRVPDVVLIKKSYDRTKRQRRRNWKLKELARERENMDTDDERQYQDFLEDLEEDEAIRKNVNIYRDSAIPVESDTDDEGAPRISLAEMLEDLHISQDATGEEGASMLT
Assay: affinity purification with mass spectrometry; bait NMD3-tev-3XFLAG from HEK293 cells, anti-FLAG agarose; LC-MS/MS of the purified pre-60S sample searched against a human proteome database (pFind3)

Protein sequences, listed by entry. Tags and fused reporters are not part of them.
UniProt Q9UNI6: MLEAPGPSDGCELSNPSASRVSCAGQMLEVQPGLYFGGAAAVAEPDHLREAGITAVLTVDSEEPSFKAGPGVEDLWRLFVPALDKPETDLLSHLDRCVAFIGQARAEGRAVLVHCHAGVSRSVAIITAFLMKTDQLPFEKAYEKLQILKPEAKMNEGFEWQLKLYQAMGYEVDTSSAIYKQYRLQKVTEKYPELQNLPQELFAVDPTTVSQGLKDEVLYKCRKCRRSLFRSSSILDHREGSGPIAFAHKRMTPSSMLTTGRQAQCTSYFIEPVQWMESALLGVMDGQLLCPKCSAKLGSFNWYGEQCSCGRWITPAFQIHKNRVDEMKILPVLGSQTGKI

Question: With DUSP12 (from UniProt Q9UNI6 1-340) as the substance, how does the binding read?
Answer: binds
